Experimental data: PubChem BioAssay AID504764 (Drosophila RNAi Screening Center, 2011)
The screen tested about 22,000 reagents; this is an unselected part of those that have a named target and a result. In the full data, 403 (1.9%) got an active call. 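Unnormalised raw counts per well; ratio z-scores behind the hit calls and whether each hit raises or lowers signal are not deposited.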 Unmarked entries are inactive. The record does not give: the amount of reagent.

- Assay: 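Genes whose knock-down alters Notch-dependent transcription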 (primary screen)
- System: Drosophila Kc167 cells
- Reagents: long dsRNA against Drosophila genes
- Time to read-out: about 5 days (4 days dsRNA, then 24 h after transfection)
- Challenge: transfection of constitutively active membrane-tethered Notch lacking the extracellular domain, read 24 h later
- Measurement: 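Firefly luciferase from an E(spl)m3 reporter with active Notch, plus control-promoter and uninduced reporter wells for normalisation; unnormalised counts, duplicate wells a and b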
- Scale: induced reporter light, run 1, well a and induced reporter light, run 1, well b: higher = more light from the Notch target reporter with active Notch; control promoter light, run 1, well a and control promoter light, run 1, well b: higher = more light from the viral control promoter (cell number, transfection, viability); uninduced reporter light, run 1, well a: higher = more light from the Notch target reporter without active Notch
- Call rule: 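Hit if the duplicate-averaged log2 ratio of induced to control-promoter light gives a plate-wise z beyond ±2, or induced to uninduced beyond ±1.8; weak-control or discordant-duplicate wells dropped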
- Calls: active = modifier hit (raised or lowered Notch signal); inactive = not a hit

The first 2 records, ahead of the listing:
Gene,dsRNA,"induced reporter light, run 1, well a","induced reporter light, run 1, well b","control promoter light, run 1, well a","control promoter light, run 1, well b","uninduced reporter light, run 1, well a"
SrpRalpha,DRSC20251,1.99e5,1.55e5,2.23e5,2.48e5,13445
Nab2,DRSC14158,15678 (active),12025,14820,17920,955

The listing, repeating the preview:
Gene,dsRNA,"induced reporter light, run 1, well a","induced reporter light, run 1, well b","control promoter light, run 1, well a","control promoter light, run 1, well b","uninduced reporter light, run 1, well a"
SrpRalpha,DRSC20251,1.99e5,1.55e5,2.23e5,2.48e5,13445
Nab2,DRSC14158,15678 (active),12025,14820,17920,955
Ir100a,DRSC14329,1.15e5 (active),1.40e5,1.88e5,2.16e5,9595
CG18420,DRSC01954,1.44e5,1.46e5,1.37e5,1.42e5,11530
CG31195,DRSC13440,65445,55240,82530,69760,8065
Obp56c,DRSC06552,1.01e5,77560,1.39e5,94625,7450
Arf6,DRSC05921,61970,61145,82360,74910,6470
mRpS34,DRSC09918,2.17e5,1.63e5,2.47e5,2.10e5,9400
nvy,DRSC04705,65490,64390,42755,55300,4405
CG31031 (retired record),DRSC13964,1.94e5 (active),2.36e5,2.16e5,2.20e5,22125
alpha-Catr,DRSC04669,1.97e5,1.86e5,1.77e5,1.52e5,13380
Msh6,DRSC10759,2.08e5,1.72e5,2.36e5,2.51e5,13375
Ldsdh1,DRSC18219,1.45e5,1.49e5,3.76e5,3.34e5,11345
CG10752,DRSC09799,1.59e5,1.33e5,1.15e5,79800,15700
CG12377 (retired record),DRSC11671,1.44e5,1.35e5,1.23e5,95760,10710
CG12377 (retired record),DRSC11672,1.51e5,1.12e5,1.09e5,96220,11035
CG8306,DRSC07141,56810,61825,1.19e5,1.21e5,6685
QIL1,DRSC10888,2.11e5,1.73e5,2.69e5,2.10e5,6125
CG3529,DRSC10369,96525,69940,64475,32185,6750
Gr2a,DRSC18603,1.57e5,1.69e5,2.46e5,2.84e5,10732
obst-E,DRSC02128,53100,56590,52680,56220,3265
Nup50,DRSC06827,2.04e5,1.91e5,1.75e5,1.59e5,12010
CG13308,DRSC09979,1.80e5,2.04e5,2.47e5,1.96e5,11520
Ctps,DRSC09342,1.62e5,1.44e5,2.82e5,2.06e5,18620
Ctps,DRSC10728,1.29e5,1.47e5,1.01e5,1.08e5,10550
Ctps,DRSC10729,1.16e5,1.01e5,1.78e5,2.25e5,10180
dgt2,DRSC02548,2.08e5,2.18e5,2.45e5,2.81e5,18530
sgll,DRSC15442,71445,87930,79655,61735,6435
Ndae1,DRSC00975,2.07e5,2.08e5,2.32e5,2.22e5,11885
Ndae1,DRSC02770,1.95e5,1.64e5,1.49e5,1.94e5,16915
CG34155,DRSC13991,65365,96885,1.60e5,1.28e5,8705
CG31459,DRSC13380,65735,61520,88165,72395,10015
CG32652 (retired record),DRSC18942,87570,75580,84220,72155,5220
Mpcp2,DRSC11226,1.05e5,82945,1.52e5,1.34e5,4765
